Reference: article PMC8590693
These are yes or no findings as the source states them, for the method shown. Binding can be weak; no strength is given.

Biological target: recombinant C-terminal domain of HSP90α (UniProt P07900)
Assay: AlphaScreen or HTRF; HSP90α (C-Terminal) Inhibitor Screening Assay Kit (BPS Bioscience); Optiplate-384; AlphaScreen microplate reader; control sample and samples with novobiocin, geldanamycin or NCT-58 (500 μM each); both purified

binding: binds
Substance: peptidylprolyl isomerase D (from UniProt Q08752 1-370)
